These are yes or no findings as the source states them, for the method shown. For some of these results: In cells and extracts the contact can be indirect. Some binding calls cover weakened binding; strength is not graded here. Tags and fused reporters may be left off the sequences shown. Each block holds one binder with its values, some of them ahead of it.
Experiments:
[1] = target: T1, HisScd6FLAG (recombinant) (yeast) (UniProt P45978); assay: pull-down; FLAG-agarose pull-down of Scd6FLAG (450nM) with eIF4G1GST (450nM) and increasing GSTScd6 (none, 1X-450nM, 3X-1350nM); 50mM Tris-HCl pH7.4, 150mM NaCl, 1mM EDTA, 1% Triton-X100, 0.25mg/ml RNase A, 10mg/ml BSA; blots with anti-eIF4G1, anti-GST, anti-FLAG; both purified
T1 sequence: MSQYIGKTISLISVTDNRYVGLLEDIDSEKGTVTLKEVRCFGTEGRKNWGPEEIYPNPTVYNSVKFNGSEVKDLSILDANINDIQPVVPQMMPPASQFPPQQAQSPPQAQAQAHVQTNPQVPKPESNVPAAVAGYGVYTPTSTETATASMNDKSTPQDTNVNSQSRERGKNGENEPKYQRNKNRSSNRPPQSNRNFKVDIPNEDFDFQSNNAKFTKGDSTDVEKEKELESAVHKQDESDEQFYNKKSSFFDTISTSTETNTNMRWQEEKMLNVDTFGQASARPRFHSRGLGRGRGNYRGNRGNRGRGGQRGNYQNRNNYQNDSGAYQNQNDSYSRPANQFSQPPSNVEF

[2] = target: T2, Sbp1GST (chromosomally encoded) (yeast) (UniProt P10080); assay: pull-down; Glutathione pull-down of chromosomally encoded Sbp1GST from yeast lysate of cells expressing galactose-inducible Sbp1 or Sbp1∆RGG; wild type and ∆HMT1 cells; blot with anti-GST and PAP antibody
T2 sequence: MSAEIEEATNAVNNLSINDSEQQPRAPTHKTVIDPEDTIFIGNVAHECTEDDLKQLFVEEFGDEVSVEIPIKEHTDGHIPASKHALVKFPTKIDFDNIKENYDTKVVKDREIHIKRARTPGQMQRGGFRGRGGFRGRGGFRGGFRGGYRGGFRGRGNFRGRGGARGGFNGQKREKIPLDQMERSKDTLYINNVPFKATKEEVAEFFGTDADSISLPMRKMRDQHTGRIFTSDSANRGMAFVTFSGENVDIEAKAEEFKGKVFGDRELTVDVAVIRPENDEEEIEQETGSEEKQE

[3] = target: T3, GSTScd6 (galactose inducible, in yeast) (yeast) (UniProt P45978); assay: pull-down; Glutathione Sepharose-4B pull-down of galactose-induced GST fusion from yeast lysate (200 µg protein) of cells expressing Scd6TAP, 2 h at 4°C, Buffer A (50mM HEPES pH7, 100mM NaCl, 1% Triton-X100, 10 mg/ml BSA), RNase A 0.25 mg/ml; also with Micrococcal nuclease or both; wild type and hmt1Δ cells; blot with PAP antibody and anti-GST
T3 sequence: T1 sequence

[4] = target: T4, eIF4G1 (recombinant, native PAGE of Figure 4c) (yeast) (UniProt P39935); assay: native gel or EMSA; 100nM, 200nM and 400nM Scd6FLAG mixed with 100nM eIF4G1 in Buffer C, incubated overnight at 4°C, 6% native PAGE, Coomassie staining; both purified
T4 sequence: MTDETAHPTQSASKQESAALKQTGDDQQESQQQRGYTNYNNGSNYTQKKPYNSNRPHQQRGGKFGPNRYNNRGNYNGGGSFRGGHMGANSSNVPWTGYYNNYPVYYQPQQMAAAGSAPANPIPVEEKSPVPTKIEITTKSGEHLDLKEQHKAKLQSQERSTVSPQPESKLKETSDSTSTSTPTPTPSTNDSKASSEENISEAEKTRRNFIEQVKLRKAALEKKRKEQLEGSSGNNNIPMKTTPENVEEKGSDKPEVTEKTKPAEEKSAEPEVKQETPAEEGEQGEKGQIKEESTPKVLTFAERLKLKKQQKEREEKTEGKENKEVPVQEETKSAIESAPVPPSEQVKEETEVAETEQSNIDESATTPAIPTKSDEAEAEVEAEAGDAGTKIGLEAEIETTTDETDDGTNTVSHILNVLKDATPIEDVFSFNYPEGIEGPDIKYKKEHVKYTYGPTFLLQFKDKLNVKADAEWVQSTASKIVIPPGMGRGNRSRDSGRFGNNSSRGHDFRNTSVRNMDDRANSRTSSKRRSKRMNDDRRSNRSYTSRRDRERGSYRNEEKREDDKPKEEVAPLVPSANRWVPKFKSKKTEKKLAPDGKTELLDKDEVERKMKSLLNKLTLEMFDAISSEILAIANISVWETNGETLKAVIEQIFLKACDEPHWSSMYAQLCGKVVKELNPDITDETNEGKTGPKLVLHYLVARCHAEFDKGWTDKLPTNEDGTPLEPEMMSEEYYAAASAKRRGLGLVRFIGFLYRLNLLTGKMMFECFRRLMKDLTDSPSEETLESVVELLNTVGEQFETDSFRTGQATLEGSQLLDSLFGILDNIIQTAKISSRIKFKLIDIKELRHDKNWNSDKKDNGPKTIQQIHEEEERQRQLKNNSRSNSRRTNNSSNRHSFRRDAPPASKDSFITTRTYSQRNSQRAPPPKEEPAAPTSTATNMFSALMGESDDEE

binding [1]: binds
B1: eIF4G1GST (recombinant) (protein, UniProt P39935 1-952)
chain: T4 sequence

binding [2]: binds
B2: HisSbp1GFP (recombinant) (natural protein, yeast, UniProt P10080 1-294, looked up)
chain: T2 sequence
notes: Sbp1, yeast, wild type; source: E. coli XL1-Blue, purified (Ni-NTA)

binding [3]: binds
B3: Scd6TAP (chromosomally tagged) (protein, UniProt P45978 1-349)
chain: T1 sequence

binding [4]: binds
B4: HisScd6FLAG (recombinant) (natural protein, yeast, UniProt P45978 1-349, looked up)
chain: T1 sequence
notes: Scd6, yeast; predicted molecular mass of the purified protein about 41.5 kDa; also called purified Scd6; source: E. coli BL21, purified (HisTrap HP, HiTrap Heparin HP)
